Some entries share one result that the patent states for a list of compounds.
Columns and labels:
[1] = tested on: M. tuberculosis H37Rv_gfp; type: cell-based, Mycobacterium tuberculosis; conditions: in combination with pretomanid; bound stated
[2] = tested on: M. tuberculosis H37Rv_DdnL49P_gfp; type: cell-based, Mycobacterium tuberculosis; conditions: in combination with pretomanid; bound stated

Row | Structure (SMILES) | EC50 [1] [nM] | EC50 [2] [nM]
1 | O=C(Nc1nc2ccc(-c3ccoc3)cc2s1)[C@@H]1C2C=CC(C2)[C@@H]1C(=O)O (stereo partly drawn) [Example 69, 3-[[6-(3-furyl)-1,3-benzothiazol-2-yl]carbamoyl]bicyclo[2.2.1]hept-5-ene-2-carboxylic acid] | < 500 | < 1000
2 | O=C(Nc1nc2ccc(Oc3cc(C(F)(F)F)ccn3)cc2s1)[C@@H]1C2C=CC(C2)[C@@H]1C(=O)O (stereo partly drawn) [Example 27, 3-[[6-[[4-(trifluoromethyl)-2-pyridyl]oxy]-1,3-benzothiazol-2-yl]carbamoyl]bicyclo[2.2.1]hept-5-ene-2-carboxylic acid] |  | < 1000
3 | O=C(Nc1nc2ccc(Cc3ccccc3)cc2s1)[C@@H]1C2C=CC(C2)[C@@H]1C(=O)O (stereo partly drawn) [Example 20, 3-[(6-benzyl-1,3-benzothiazol-2-yl)carbamoyl]bicyclo[2.2.1]hept-5-ene-2-carboxylic acid] | < 500 | < 1000
4 | C#CCOc1ccc2nc(N3C(=O)[C@@H]4[C@H](C3=O)[C@@H]3C=C[C@H]4C3)sc2c1 [Example 73, (1R,2S,6R,7S)-4-(6-prop-2-ynoxy-1,3-benzothiazol-2-yl)-4-azatricyclo[5.2.1.02,6]dec-8-ene-3,5-dione] | < 500 | < 1000
5 | O=C1[C@@H]2[C@H](C(=O)N1c1nc3ccc(Oc4ccc(C(F)(F)F)cn4)cc3s1)[C@@H]1C=C[C@H]2C1 [Example 36, (1R,2S,6R,7S)-4-[6-[[5-(trifluoromethyl)-2-pyridyl]oxy]-1,3-benzothiazol-2-yl]-4-azatricyclo[5.2.1.02,6]dec-8-ene-3,5-dione] | < 500 | < 1000
6 | O=C(Nc1nc2ccc(-c3ccc(Cl)cc3)cc2s1)[C@@H]1C2C=CC(C2)[C@@H]1C(=O)O (stereo partly drawn) [Example 55, 3-[[6-(4-chlorophenyl)-1,3-benzothiazol-2-yl]carbamoyl]bicyclo[2.2.1]hept-5-ene-2-carboxylic acid] | < 500 | < 1000
7 | O=C1[C@@H]2[C@H](C(=O)N1c1nc3ccc(-c4ccc(C(F)(F)F)cc4)cc3s1)[C@@H]1C=C[C@H]2C1 [Example 61, (1R,2S,6R,7S)-4-[6-[4-(trifluoromethyl)phenyl]-1,3-benzothiazol-2-yl]-4-azatricyclo[5.2.1.02,6]dec-8-ene-3,5-dione] | < 500 | < 1000
8 | C#CCOc1ccc(-c2ccc3nc(N4C(=O)[C@@H]5[C@H](C4=O)[C@@H]4C=C[C@H]5C4)sc3c2)cc1 [Example 71, (1R,2S,6R,7S)-4-[6-(4-prop-2-ynoxyphenyl)-1,3-benzothiazol-2-yl]-4-azatricyclo[5.2.1.02,6]dec-8-ene-3,5-dione] | < 500 | < 1000
9 | O=C(Nc1nc2ccc(Oc3ccnc(C(F)(F)F)c3)cc2s1)[C@@H]1C2C=CC(C2)[C@@H]1C(=O)O (stereo partly drawn) [Example 32, 3-[[6-[[2-(trifluoromethyl)-4-pyridyl]oxy]-1,3-benzothiazol-2-yl]carbamoyl]bicyclo[2.2.1]hept-5-ene-2-carboxylic acid] | < 500 | < 1000
10 | O=C(Nc1nc2ccc(Oc3ccc(F)cc3)cc2s1)[C@@H]1C2C=CC(C2)[C@@H]1C(=O)O (stereo partly drawn) [Example 21, 3-[[6-(4-fluorophenoxy)-1,3-benzothiazol-2-yl]carbamoyl]bicyclo[2.2.1]hept-5-ene-2-carboxylic acid] | < 500 | < 1000
11 | CC(C)(C)c1ccc2nc(NC(=O)[C@@H]3C4C=CC(C4)[C@@H]3C(=O)O)sc2c1 (stereo partly drawn) [Example 12, 3-[(6-tert-butyl-1,3-benzothiazol-2-yl)carbamoyl]bicyclo[2.2.1]hept-5-ene-2-carboxylic acid] | < 500 | < 1000
12 | O=C(Nc1nc2ccc(C#CC3CC3)cc2s1)[C@@H]1C2C=CC(C2)[C@@H]1C(=O)O (stereo partly drawn) [Example 79, 3-[[6-(2-cyclopropylethynyl)-1,3-benzothiazol-2-yl]carbamoyl]bicyclo[2.2.1]hept-5-ene-2-carboxylic acid] | < 500 | < 1000
13 | O=C(Nc1nc2ccc(-c3ccc(C(F)(F)F)cc3)cc2s1)[C@@H]1C2C=CC(C2)[C@@H]1C(=O)O (stereo partly drawn) [Example 60, 3-[[6-[4-(trifluoromethyl)phenyl]-1,3-benzothiazol-2-yl]carbamoyl]bicyclo[2.2.1]hept-5-ene-2-carboxylic acid] | < 500 | < 1000
14 | CCOc1ccc2nc(NC(=O)[C@@H]3C4C=CC(C4)[C@@H]3C(=O)O)sc2c1 (stereo partly drawn) [Example 7, 3-[(6-ethoxy-1,3-benzothiazol-2-yl)carbamoyl]bicyclo[2.2.1]hept-5-ene-2-carboxylic acid] | < 500 | < 1000
15 | O=C(Nc1nc2ccc(-c3ccc(OC(F)(F)F)cc3)cc2s1)[C@@H]1C2C=CC(C2)[C@@H]1C(=O)O (stereo partly drawn) [Example 62, 3-[[6-[4-(trifluoromethoxy)phenyl]-1,3-benzothiazol-2-yl]carbamoyl]bicyclo[2.2.1]hept-5-ene-2-carboxylic acid] | < 500 | < 1000
16 | Cc1ccc(-c2ccc3nc(NC(=O)[C@@H]4C5C=CC(C5)[C@@H]4C(=O)O)sc3c2)cc1 (stereo partly drawn) [Example 53, 3-[[6-(p-tolyl)-1,3-benzothiazol-2-yl]carbamoyl]bicyclo[2.2.1]hept-5-ene-2-carboxylic acid] | < 500 | < 1000
17 | COc1ccc(-c2ccc3nc(NC(=O)[C@@H]4C5C=CC(C5)[C@@H]4C(=O)O)sc3c2)cc1 (stereo partly drawn) [Example 54, 3-[[6-(4-methoxyphenyl)-1,3-benzothiazol-2-yl]carbamoyl]bicyclo[2.2.1]hept-5-ene-2-carboxylic acid] | < 500 | < 1000
18 | CC(C)(C)C#Cc1ccc2nc(NC(=O)[C@@H]3C4C=CC(C4)[C@@H]3C(=O)O)sc2c1 (stereo partly drawn) [Example 78, 3-[[6-(3,3-dimethylbut-1-ynyl)-1,3-benzothiazol-2-yl]carbamoyl]bicyclo [2.2.1]hept-5-ene-2-carboxylic acid] | < 500 | < 1000
19 | Cc1ccnc(Oc2ccc3nc(N4C(=O)[C@@H]5C6C=CC(C6)[C@@H]5C4=O)sc3c2)c1 [Example 30] | < 500 | < 1000
20 | O=C(Nc1nc2ccc(C#Cc3ccccc3)cc2s1)[C@@H]1C2C=CC(C2)[C@@H]1C(=O)O (stereo partly drawn) [Example 77, 3-[[6-(2-phenylethynyl)-1,3-benzothiazol-2-yl]carbamoyl]bicyclo[2.2.1]hept-5-ene-2-carboxylic acid] | < 500 | < 1000
